Further values from the same series stand in other lists.
Assay: Lycopene content of rat serum
Type: in vivo, Fischer 344 rats
Conditions: female, Group 4 (128 mg/kg diet)
Description: Prior to termination, 3 animals from each group were placed in metabolic cages and 24-hour urine and fecal collections made for subsequent lycopene assay. Blood was collected by heart puncture under anesthesia for lycopene assay and all animals were sacrificed by CO2 anesthesia. Blood and feces were stored at −20° C. At necropsy, all major organ systems were grossly inspected. Any unusual appearing tissues were placed in formalin and saved for later histological examination.
Extraction of lycopene from serum was conducted by adding 1 ml of serum to 0.1 ml echinenone standard in ethanol and 0.9 ml ethanol. The mixture was then vortexed for 20 seconds, and 2.0 ml hexane added and mixed vigorously for 1 minute. The cloudy mixture was then centrifuged at 3,000 rpm for 15 minutes at 4° C. and the clear hexane layer was decanted. The above procedure was repeated 3-5×. The pooled hexane fraction was then dried under N2 gas at 60° C., and the residue dissolved in 0.5 ml HPLC solvent and analyzed by HPLC.

**Q.** What does the source list for `CC(C)=CCC/C(C)=C/C=C/C(C)=C/C=C/C(C)=C/C=C/C=C(C)/C=C/C=C(C)/C=C/C=C(\C)CCC=C(C)C` [Lycopene]?
**A.** Lycopene content of serum, Median: 308 ng/mL; Lycopene content of serum, Range: 262 to 369 ng/mL; Lycopene content of serum, mean ± SD: 313 ± 047 ng/mL

— patent US20040191297A1, “Carotenoid formulation” (priority 1997, published 2004)
